Experimental findings from publication PMC9800341, “THOC5 complexes with DDX5, DDX17, and CDK12 to regulate R loop structures and transcription elongation rate” are described below.

Protein sequences, listed by entry. Tags and fused reporters are not part of them.
UniProt P17844: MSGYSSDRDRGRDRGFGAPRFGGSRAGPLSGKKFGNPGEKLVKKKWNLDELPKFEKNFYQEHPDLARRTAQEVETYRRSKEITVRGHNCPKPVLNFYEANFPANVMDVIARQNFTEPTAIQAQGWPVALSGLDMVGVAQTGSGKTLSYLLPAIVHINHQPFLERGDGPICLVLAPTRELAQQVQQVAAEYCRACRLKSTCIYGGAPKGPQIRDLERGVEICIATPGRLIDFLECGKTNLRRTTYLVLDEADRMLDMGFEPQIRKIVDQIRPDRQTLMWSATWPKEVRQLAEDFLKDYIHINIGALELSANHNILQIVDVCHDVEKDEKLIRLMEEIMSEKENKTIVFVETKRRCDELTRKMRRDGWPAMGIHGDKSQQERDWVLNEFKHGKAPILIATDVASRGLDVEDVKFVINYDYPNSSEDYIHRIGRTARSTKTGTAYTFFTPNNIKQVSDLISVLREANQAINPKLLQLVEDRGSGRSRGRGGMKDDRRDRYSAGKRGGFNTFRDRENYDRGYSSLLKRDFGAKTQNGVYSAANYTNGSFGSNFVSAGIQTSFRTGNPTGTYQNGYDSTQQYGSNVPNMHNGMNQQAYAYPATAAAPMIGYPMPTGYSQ
UniProt Q92841: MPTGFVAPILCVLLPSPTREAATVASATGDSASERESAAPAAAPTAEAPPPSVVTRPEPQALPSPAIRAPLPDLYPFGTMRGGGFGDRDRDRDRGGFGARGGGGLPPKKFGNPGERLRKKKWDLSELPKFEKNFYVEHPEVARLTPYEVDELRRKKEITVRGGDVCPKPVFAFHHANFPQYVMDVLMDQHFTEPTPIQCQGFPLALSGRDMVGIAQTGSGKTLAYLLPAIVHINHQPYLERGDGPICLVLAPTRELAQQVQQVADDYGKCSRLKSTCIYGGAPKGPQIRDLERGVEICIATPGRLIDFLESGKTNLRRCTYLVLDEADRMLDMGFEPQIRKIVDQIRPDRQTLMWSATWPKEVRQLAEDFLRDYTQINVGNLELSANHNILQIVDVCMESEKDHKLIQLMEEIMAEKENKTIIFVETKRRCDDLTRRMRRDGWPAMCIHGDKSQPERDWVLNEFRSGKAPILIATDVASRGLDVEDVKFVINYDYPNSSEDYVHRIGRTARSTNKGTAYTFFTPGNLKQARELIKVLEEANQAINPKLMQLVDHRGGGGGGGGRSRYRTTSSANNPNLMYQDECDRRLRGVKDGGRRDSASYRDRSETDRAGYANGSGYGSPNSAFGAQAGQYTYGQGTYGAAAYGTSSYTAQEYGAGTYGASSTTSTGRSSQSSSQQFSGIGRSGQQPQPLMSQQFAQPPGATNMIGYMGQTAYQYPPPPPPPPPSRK
UniProt O43143: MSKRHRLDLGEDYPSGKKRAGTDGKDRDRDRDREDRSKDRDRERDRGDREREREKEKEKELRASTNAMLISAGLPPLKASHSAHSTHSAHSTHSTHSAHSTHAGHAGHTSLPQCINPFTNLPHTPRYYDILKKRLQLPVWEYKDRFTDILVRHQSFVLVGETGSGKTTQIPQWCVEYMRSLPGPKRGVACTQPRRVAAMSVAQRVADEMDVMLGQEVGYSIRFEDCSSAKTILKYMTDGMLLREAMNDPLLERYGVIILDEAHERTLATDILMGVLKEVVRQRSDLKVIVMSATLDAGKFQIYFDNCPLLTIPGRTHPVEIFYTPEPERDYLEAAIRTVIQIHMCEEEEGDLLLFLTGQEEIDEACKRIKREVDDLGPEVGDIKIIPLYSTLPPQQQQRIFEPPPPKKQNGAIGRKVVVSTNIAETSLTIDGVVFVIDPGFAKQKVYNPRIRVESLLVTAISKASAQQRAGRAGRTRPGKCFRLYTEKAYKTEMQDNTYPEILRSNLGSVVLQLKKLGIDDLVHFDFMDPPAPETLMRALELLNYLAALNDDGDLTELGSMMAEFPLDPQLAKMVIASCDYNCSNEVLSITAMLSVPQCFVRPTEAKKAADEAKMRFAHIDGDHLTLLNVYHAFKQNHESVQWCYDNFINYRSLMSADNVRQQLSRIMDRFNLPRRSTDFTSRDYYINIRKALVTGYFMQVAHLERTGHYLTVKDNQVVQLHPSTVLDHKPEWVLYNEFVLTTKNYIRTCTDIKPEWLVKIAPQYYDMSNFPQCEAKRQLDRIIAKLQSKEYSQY

For experiment [1], the target named is T1, THOC5 (chromatin-associated, endogenous) (human (endogenous in HEK293)) (UniProt Q13769).
T1 sequence: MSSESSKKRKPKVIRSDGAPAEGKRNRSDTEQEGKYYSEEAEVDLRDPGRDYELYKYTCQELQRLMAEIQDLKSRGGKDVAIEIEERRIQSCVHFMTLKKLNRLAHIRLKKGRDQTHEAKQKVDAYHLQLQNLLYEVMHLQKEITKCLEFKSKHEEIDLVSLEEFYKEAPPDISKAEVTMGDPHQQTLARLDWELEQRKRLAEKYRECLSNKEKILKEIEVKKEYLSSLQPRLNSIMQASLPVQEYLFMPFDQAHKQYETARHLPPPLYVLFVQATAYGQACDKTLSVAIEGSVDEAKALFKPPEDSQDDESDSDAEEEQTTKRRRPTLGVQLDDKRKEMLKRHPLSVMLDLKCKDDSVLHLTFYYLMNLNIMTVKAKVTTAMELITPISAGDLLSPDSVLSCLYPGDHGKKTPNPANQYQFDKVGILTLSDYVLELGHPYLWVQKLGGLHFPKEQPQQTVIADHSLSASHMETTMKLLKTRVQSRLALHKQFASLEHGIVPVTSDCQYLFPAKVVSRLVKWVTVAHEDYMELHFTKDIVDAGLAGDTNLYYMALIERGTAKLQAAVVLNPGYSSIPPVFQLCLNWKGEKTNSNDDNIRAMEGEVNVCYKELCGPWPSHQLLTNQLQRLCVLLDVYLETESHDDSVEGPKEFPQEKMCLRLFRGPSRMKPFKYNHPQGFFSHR
Briefly: affinity purification with mass spectrometry; endogenous THOC5 precipitated with mouse monoclonal anti-THOC5 on Protein G Agarose-PLUS from the chromatin-associated fraction of HEK293 cells expressing slow Pol II (fast Pol II cells in parallel, see a2); 150 mM NaCl, 0.5% NP-40, RNAse A, 8 h at 4°C; proteins also found with control IgG ….

Experiment [2] deals with T1, THOC5 (chromatin-associated, endogenous) (human (endogenous in HEK293)). The experiment is described as above. This is another data set of the same source.

Like-named read-outs stand apart in the source and are kept apart here. No constants are given. Whether binding was seen depends on the method and setting. Binding seen in cells or lysates may run through a third protein. These calls come from enrichment with a bait or labelling near it, and not all partners need be listed.

“DEAD box helicase DDX5 (endogenous) (from UniProt P17844 1-614)”: in experiment [1], the binding entry is “binds”.
The same measure, in the same setting: to “DEAD box helicase DDX17 (endogenous) (from UniProt Q92841 1-729)” belongs “binds”; to “DEAH box helicase DHX15 (endogenous) (from UniProt O43143 1-795)”, “binds”.

B1: DEAD box helicase DDX50 (endogenous) (protein, UniProt Q9BQ39 1-737)
chain: MPGKLLWGDIMELEAPLEESESQKKERQKSDRRKSRHHYDSDEKSETRENGVTDDLDAPKAKKSKMKEKLNGDTEEGFNRLSDEFSKSHKSRRKDLPNGDIDEYEKKSKRVSSLDTSTHKSSDNKLEETLTREQKEGAFSNFPISEETIKLLKGRGVTYLFPIQVKTFGPVYEGKDLIAQARTGTGKTFSFAIPLIERLQRNQETIKKSRSPKVLVLAPTRELANQVAKDFKDITRKLSVACFYGGTSYQSQINHIRNGIDILVGTPGRIKDHLQSGRLDLSKLRHVVLDEVDQMLDLGFAEQVEDIIHESYKTDSEDNPQTLLFSATCPQWVYKVAKKYMKSRYEQVDLVGKMTQKAATTVEHLAIQCHWSQRPAVIGDVLQVYSGSEGRAIIFCETKKNVTEMAMNPHIKQNAQCLHGDIAQSQREITLKGFREGSFKVLVATNVAARGLDIPEVDLVIQSSPPQDVESYIHRSGRTGRAGRTGICICFYQPRERGQLRYVEQKAGITFKRVGVPSTMDLVKSKSMDAIRSLASVSYAAVDFFRPSAQRLIEEKGAVDALAAALAHISGASSFEPRSLITSDKGFVTMTLESLEEIQDVSCAWKELNRKLSSNAVSQITRMCLLKGNMGVCFDVPTTESERLQAEWHDSDWILSVPAKLPEIEEYYDGNTSSNSRQRSGWSSGRSGRSGRSGGRSGGRSGRQSRQGSRSGSRQDGRRRSGNRNRSRSGGHKRSFD
As for B1, the binding result in experiment [2] is “binds”.

B2: THOC6 (endogenous) (protein, UniProt Q86W42 1-341)
chain: MERAVPLAVPLGQTEVFQALQRLHMTIFSQSVSPCGKFLAAGNNYGQIAIFSLSSALSSEAKEESKKPVVTFQAHDGPVYSMVSTDRHLLSAGDGEVKAWLWAEMLKKGCKELWRRQPPYRTSLEVPEINALLLVPKENSLILAGGDCQLHTMDLETGTFTRVLRGHTDYIHCLALRERSPEVLSGGEDGAVRLWDLRTAKEVQTIEVYKHEECSRPHNGRWIGCLATDSDWMVCGGGPALTLWHLRSSTPTTIFPIRAPQKHVTFYQDLILSAGQGRCVNQWQLSGELKAQVPGSSPGLLSLSLNQQPAAPECKVLTAAGNSCRVDVFTNLGYRAFSLSF
For the molecule B2, the binding entry in experiment [2] is “binds”.
